Out of some 410,000 compounds screened, about 18,000 (4.4%) were called active. Inconclusive means that the source gave no clear call. Such entries were picked first, then a sample of the others. Rule as the data show it: active = activity change below about -60%; inconclusive = no clear call, values can overlap the other calls; inactive = above about -39%.
experiment: qHTS Assay for inhibitors of the human cytomegalovirus (HCMV); settings: HFF cells, HCMV-luciferase reporter, 72 h; at 57.5 µM; active compounds read low
In short: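 Inhibition of viral replication was scored as loss of reporter luminescence in HFFs infected with HCMV-luciferase (MOI 1 PFU/cell) for 72 h; compounds tested at 2 doses, normalized to buffer and Salinomycin controls.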
% is scaled to controls: 0 for no effect and ±100 for the full control effect.

| SMILES | activity change, negative = inhibition |
| --- | --- |
| CCCCSc1nc(NCc2ccco2)c2c3c(sc2n1)COC(C)(C)C3 | inconclusive: -45.5% |
| COc1cccc(C(N)c2nc(-c3cc(F)cc(F)c3)cs2)c1 (stereo unspecified) | inactive: -8.81% |
| Cc1ccccc1-c1nnc(C2CCN(S(=O)(=O)c3ccc(Cl)cc3)CC2)o1 | active: -104% |
| COc1ccccc1NC(=O)N(C)C[C@H]1OCc2cn(nn2)CCCC(=O)N([C@H](C)CO)C[C@@H]1C | inactive: -6.18% |
| Cc1ccc(C(=O)NC(=S)Nc2ccc(NC(=O)c3cccc(Cl)c3)cc2)cc1 | inconclusive: -51.8% |
| COc1ccc(-c2cc(OC)c3ccccc3n2)cc1 | inactive: 32.5% |
| COc1ccc(CNC(=O)c2cc3c(=O)n(C)c4ccccc4c3n2C)cc1 | inactive: 1.53% |
| CC(C)(C)c1cc(OS(C)(=O)=O)ccc1O | inconclusive: -55.6% |
| COC(=O)c1c(NC(=O)C(Cl)Cl)sc2c1C(C(=O)OC)CC2 (stereo unspecified) | active: -61.8% |
| Cc1ccc2nc(-c3cccnc3)cc(C(=O)Nc3ccccc3[N+](=O)[O-])c2c1 | inconclusive: -40.8% |
| Cc1cccc(Sc2nc(-c3ccccc3)ncc2C(=O)O)c1 | inactive: -24.5% |
| Cc1nn(-c2ccccc2)c(C)c1/C=N/Nc1nc2ccccc2[nH]1 | inconclusive: -42.2% |
| CC(/C=C/c1ccco1)=N\NC(=O)CNc1cccc(C)c1 | active: -60.7% |
| COc1ccc(NS(=O)(=O)c2csc(C(=O)Nc3ccccc3)c2)cc1 | inconclusive: -52% |
| CC(C)OC(=O)CC1C(=O)NCCN1C(=S)NC(=O)c1ccc(F)cc1 (stereo unspecified) | inconclusive: -42.3% |
| Cc1ccnc(NC(c2ccccc2O)c2oc(CO)cc(=O)c2O)c1 (stereo unspecified) | inconclusive: -41.9% |
| O=C(Nc1ccc2ncccc2c1)c1ccccc1Cl | inconclusive: -45.3% |
| OC[C@@H]1CN(Cc2ccc(-c3ccccc3)cc2)C[C@H](n2cnc3c(NCc4ccco4)ncnc32)O1 | active: -89.6% |
| Cc1ccc2[nH]c(=O)c3cc(C(=O)NCC4CCCO4)sc3c2c1 (stereo unspecified) | inconclusive: -40.2% |
| Oc1ccc(F)c(CN2CCN(c3ncc(Cc4ccccc4)cn3)CC2)c1 | inactive: 23.5% |
| O=S(=O)(/C=C/c1ccccc1)N1CCN(Cc2ccccc2)CC1 | inconclusive: -41.9% |
| Cc1ccc(C(C(=O)NCc2ccccc2)N(C(=O)c2csnn2)C2CC2)cc1 (stereo unspecified) | inconclusive: -49.5% |

| SMILES | activity change, negative = inhibition |
| --- | --- |
| Cc1cccc(CSc2nc3ccncc3n2CC(=O)Nc2cc(C)cc(C)c2)c1 | inactive: -4.95% |
| CCC(Sc1nc2cc3c(cc2c(=O)n1Cc1ccco1)OCO3)C(=O)Nc1cccc(OC)c1 (stereo unspecified) | inconclusive: -52.7% |
| O=C(NC12CC3CC(CC(C3)C1)C2)N1CCCC(CO)C1 (stereo unspecified) | inconclusive: -48.7% |
| CCOC(=O)c1c(C)n(C)c2ccc(OCC(O)Cn3nc(C)cc3C)cc12 (stereo unspecified) | inactive: 1.84% |
| CC1Cc2nc(SCC(=O)N3CCN(c4ccccc4)CC3)n(CCc3ccccc3)c(=O)c2S1 (stereo unspecified) | inconclusive: -42.8% |
| COc1ccc(OCc2nnc(SCC(=O)N3c4ccccc4Sc4ccc(Cl)cc43)o2)cc1 | inconclusive: -42.5% |
| C(=Cc1c[nH]c2ccccc12)c1ccc2ccccc2n1 | active: -91.8% |
| Cc1onc(-c2ccccc2)c1-c1nc2ccccc2c(=O)o1 | inconclusive: -42% |
| Cc1cc(=O)[nH]c(NN=C2CCC(C(C)(C)C)CC2)n1 (stereo unspecified) | inconclusive: -48.7% |
| Cc1cccc(-c2nnc3n2N=C(c2ccccc2Br)CS3)c1 | active: -82.6% |
| O=C(CN1C(=O)C(c2ccc(F)cc2)=NC12CCCCCC2)Nc1ccc(F)c(Cl)c1 | active: -89.8% |
| Cn1ncc([N+](=O)[O-])c1C(=O)Nc1ccc2c(c1)OCCO2 | inconclusive: -45.4% |
| Cc1ccc(C(=O)NCC(c2ccc(F)cc2)N2CCOCC2)cc1S(=O)(=O)N1CCOCC1 (stereo unspecified) | inactive: 20.9% |
| CN(C(=O)c1nc(-c2cccc(F)c2)n2c1CCCCC2)c1ccccc1F | active: -61.9% |
| COc1ccc(CCNC(=O)Cc2c(Cl)cccc2Cl)cc1 | inconclusive: -46.9% |
| CCCN1CNC(=S)N(c2ccc(C)cc2C)C1 | inconclusive: -45.1% |
| CCCn1nc(C(=O)NC2CCCCCC2)c2ccccc2c1=O | inconclusive: -50% |
| N=c1nc(N)nc2n1NC(c1ccc(F)cc1)=CS2 | active: -87.7% |
| CCc1ccc2oc(-c3ccc(OC)cc3)cc(=Nc3c(C)n(C)n(-c4ccccc4)c3=O)c2c1 | inconclusive: -54.1% |
| CCOc1ccc(C(=O)N2CCN(c3ccccc3)CC2)cc1 | inactive: -9.42% |
| Cc1sc(NC(=S)NC(=O)c2ccc(C(C)(C)C)cc2)c(C#N)c1C | inconclusive: -58.2% |
| O=C(OCc1ccc(Cl)cc1)c1cccnc1Cl | inconclusive: -52.3% |

Of the compounds above, two have a nitro group on carbon.

| SMILES | activity change, negative = inhibition |
| --- | --- |
| Cc1ccc2nc(-c3cccnc3)cc(C(=O)Nc3ccccc3[N+](=O)[O-])c2c1 | inconclusive: -40.8% |
| Cn1ncc([N+](=O)[O-])c1C(=O)Nc1ccc2c(c1)OCCO2 | inconclusive: -45.4% |

Further records

| SMILES | activity change, negative = inhibition |
| --- | --- |
| COn1c(SCc2ccc(C)cc2C)nc2ccccc2c1=O | inconclusive: -56.5% |
| CCN1CC(CN(C)Cc2nc(-c3ccc(C(F)(F)F)cc3)no2)CC1=O (stereo unspecified) | inconclusive: -49.4% |
| O=C(c1ccc([N+](=O)[O-])cc1[N+](=O)[O-])n1cnc2ccccc21 | inactive: 0% |
| O=C(Cc1ccc(F)cc1)Nc1nccs1 | inactive: 2.99% |
| O=C(Nc1ccc(Cc2ccncc2)cc1)c1ccc(N2CCOCC2)c([N+](=O)[O-])c1 | inconclusive: -51.8% |
| Cc1ccc(S(=O)(=O)N2CCN(C(=O)c3c(-c4ccccc4)noc3C)CC2)c(C)c1 | inconclusive: -48.1% |
| Cc1ccc(S(=O)(=O)N2CCN(C(=O)Cn3c(=O)oc4ccccc43)CC2)c(C)c1 | inconclusive: -49.6% |
| CC(C)C[C@H]1CNC(=S)N1CC1CCCN1C[C@H](Cc1ccc(O)cc1)N1C[C@H](Cc2ccccc2)N(CC2CCCCC2)C1=S (stereo partly specified) | active: -61.8% |
| COc1cc(O)c(C(CCN2CCCCC2)c2ccc(N(C)C)cc2)c(OC)c1 (stereo unspecified) | inactive: -22.5% |
| COc1cc(C)ccc1OCc1cc(C(=O)N(C)CCCN2CCOCC2)no1 | inactive: 69.7% |
| CN(C)C(=O)/C=C\c1cn(-c2ccccc2)nc1-c1ccc2c(c1)OCCO2 | active: -84.9% |
| Fc1ccc(Nc2nnc(C(F)(F)F)s2)cc1Cl | active: -98.2% |
| Nn1c(Cc2ccccc2)nc2sc3c(c2c1=O)CCC3 | inconclusive: -49.3% |
| COC(=O)[C@@]1(Cc2ccc(OC)cc2)[C@@H]2C(=CC(=O)[C@H]2CC(=O)C(=O)N(C)C)CN1C(=O)c1ccccc1 | active: -79.5% |
| Cc1cc(N(C)NC(=S)Nc2ccccc2)nc(C)n1 | active: -90.7% |
| Cc1ccc(-n2c3c(c(=O)[nH]c2=O)C(NC(=O)c2ccccc2F)(C(F)(F)F)C(=O)N3)cc1C (stereo unspecified) | inactive: -5.14% |
| CN(C)S(=O)(=O)c1cc(NC(=O)CSc2nn(-c3ccc(Cl)cc3)c(=S)s2)ccc1Cl | active: -84.5% |
| Cc1ccc(Cn2nnnc2CN2CCC(n3nnc4cc(C)ccc43)CC2)cc1 | inconclusive: -41.3% |
| CCOc1ccc(N(CC(=O)Nc2ccccc2C)S(=O)(=O)c2c(C)noc2C)cc1 | active: -69.5% |
| CCC(C)NC(=O)c1cc(Cl)c(NC(=O)C2=C(C)OCCS2)cc1OC (stereo unspecified) | inconclusive: -48.2% |
| Cc1ccc(Cn2c(=N)c(C(=O)NCC3CCCO3)cc3c(=O)n4cccc(C)c4nc32)cc1 (stereo unspecified) | active: -107% |
| CC1CC(C)CN(c2oc(-c3ccccc3Cl)nc2C#N)C1 (stereo unspecified) | inconclusive: -47.2% |

Grouped by structure, those above with a Cl atom (twelve)

| SMILES | activity change, negative = inhibition |
| --- | --- |
| Cc1ccccc1-c1nnc(C2CCN(S(=O)(=O)c3ccc(Cl)cc3)CC2)o1 | active: -104% |
| Cc1ccc(C(=O)NC(=S)Nc2ccc(NC(=O)c3cccc(Cl)c3)cc2)cc1 | inconclusive: -51.8% |
| COC(=O)c1c(NC(=O)C(Cl)Cl)sc2c1C(C(=O)OC)CC2 (stereo unspecified) | active: -61.8% |
| O=C(Nc1ccc2ncccc2c1)c1ccccc1Cl | inconclusive: -45.3% |
| COc1ccc(OCc2nnc(SCC(=O)N3c4ccccc4Sc4ccc(Cl)cc43)o2)cc1 | inconclusive: -42.5% |
| O=C(CN1C(=O)C(c2ccc(F)cc2)=NC12CCCCCC2)Nc1ccc(F)c(Cl)c1 | active: -89.8% |
| COc1ccc(CCNC(=O)Cc2c(Cl)cccc2Cl)cc1 | inconclusive: -46.9% |
| O=C(OCc1ccc(Cl)cc1)c1cccnc1Cl | inconclusive: -52.3% |
| Fc1ccc(Nc2nnc(C(F)(F)F)s2)cc1Cl | active: -98.2% |
| CN(C)S(=O)(=O)c1cc(NC(=O)CSc2nn(-c3ccc(Cl)cc3)c(=S)s2)ccc1Cl | active: -84.5% |
| CCC(C)NC(=O)c1cc(Cl)c(NC(=O)C2=C(C)OCCS2)cc1OC (stereo unspecified) | inconclusive: -48.2% |
| CC1CC(C)CN(c2oc(-c3ccccc3Cl)nc2C#N)C1 (stereo unspecified) | inconclusive: -47.2% |

The listing continues.

| SMILES | activity change, negative = inhibition |
| --- | --- |
| Cc1cccc(-c2oc3ccccc3c2C#CCCO)c1 | inactive: -17.1% |
| CCNS(=O)(=O)c1ccc(NC(=O)c2ccccc2SCCOC)cc1 | inconclusive: -43.2% |
| COC(=O)c1ccc2c(=O)n(Cc3ccco3)c(SCC(=O)Nc3ccc(C)c(Cl)c3)nc2c1 | active: -63.1% |
| Cc1cccc(C)c1Nc1c(-c2ccccn2)nc2ccccn12 | active: -97.1% |
| COc1ccc(-c2nn(-c3ccccc3)cc2/C=C2/SC(=S)N(CCC(=O)O)C2=O)cc1 | inconclusive: -44.1% |
| CCc1ccc(CNC(=O)c2ccc(-n3c(C)cc4c3CCC(C)C4)cc2)cc1 (stereo unspecified) | inconclusive: -53.4% |
| O=C(NC(=S)Nc1ccc(N2CCOCC2)c(Cl)c1)c1sc2ccccc2c1Cl | inconclusive: -40.3% |
| Cc1ccc(S(=O)(=O)Nc2ccc3c(c2)CCCN3C(=O)c2cccs2)cc1C | inconclusive: -45% |
| O=C(NCCO)C(c1ccccc1)c1ccccc1 | inactive: -1.08% |
| CC(=O)c1c(C)cc(C)c(CSc2ccccn2)c1C | inconclusive: -40.5% |
| CCOc1ccc(CN(C)CC(=O)Nc2cccc(S(=O)(=O)N(C)c3ccccc3)c2)cc1 | inconclusive: -46.6% |
| Cn1c(SCc2cccc(C#N)c2)nc2ccccc2c1=O | active: -64.3% |
| c1ccc(-c2cc(-c3nnc4n3N=C(c3ccc5ccccc5c3)CS4)[nH]n2)cc1 | active: -95.9% |
| O=C(Cc1c(F)cccc1Cl)Nc1cc(S(=O)(=O)N2CCOCC2)ccc1N1CCCC1 | inconclusive: -52.7% |
| O=C(Cn1ncc2c3ccccc3n(Cc3cccc(Cl)c3)c2c1=O)NCc1ccccn1 | inconclusive: -48.3% |
| Cc1cc(Br)ccc1NC(=O)CN1C(=S)NC(C)(C)CC1C (stereo unspecified) | inconclusive: -49.2% |
| CCCCCCc1nc2ccccc2c(=O)n1NC(=O)c1c(O)c2c(n(CC(C)C)c1=O)CCCC2 | active: -92.8% |
| COCCNc1ccnc2c(Cl)cccc12 | inconclusive: -41.2% |
| Cc1ccccc1NC(=O)c1ccc2snnc2c1 | inconclusive: -43.7% |
| O=C(NCC(c1ccc2c(c1)OCO2)N1CCOCC1)C(=O)Nc1ccc(Cl)cc1 (stereo unspecified) | inconclusive: 0% |

— PubChem BioAssay AID1259415 (National Center for Advancing Translational Sciences (NCATS), 2018)
